The list shows a part of the results.
What was measured:
Assay in all cases: log2 fold change, soluble protein after heating vs DMSO (PISA); higher = thermal stabilisation; K562 cells, 10 uM, 30 min; active = over 0.2 and 3.5 SD of the protein, either way, in both replicates (recomputed)
[1] = compound: CC1=C(C=C(C=C1)NC(=O)C2=CC(=CC=C2)C(C)(C)C#N)NC3=CC4=C(C=C3)N=CN(C4=O)C
Procedure, shortened: (§1)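 Aliquots of K562 cells (2×10^6 cells/mL) treated with 10 μM compound for 30 min were heated for 3 min over 48°C-58°C. After pooling and extraction in PBS with 0.5% NP-40 at 4°C, soluble protein from a 21,000xg, 90 min spin was quantified by TMTpro 16plex LC-MS/MS with channel sums equalised. Thermal stability is expressed against control samples, from duplicates, as a log2 fold change.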

By UniProt entry, the sequences of proteins in these tests, tags left out. Where a name states a change or a piece, a line headed by the entry shows the natural chain unless it says otherwise.
UniProt Q13796: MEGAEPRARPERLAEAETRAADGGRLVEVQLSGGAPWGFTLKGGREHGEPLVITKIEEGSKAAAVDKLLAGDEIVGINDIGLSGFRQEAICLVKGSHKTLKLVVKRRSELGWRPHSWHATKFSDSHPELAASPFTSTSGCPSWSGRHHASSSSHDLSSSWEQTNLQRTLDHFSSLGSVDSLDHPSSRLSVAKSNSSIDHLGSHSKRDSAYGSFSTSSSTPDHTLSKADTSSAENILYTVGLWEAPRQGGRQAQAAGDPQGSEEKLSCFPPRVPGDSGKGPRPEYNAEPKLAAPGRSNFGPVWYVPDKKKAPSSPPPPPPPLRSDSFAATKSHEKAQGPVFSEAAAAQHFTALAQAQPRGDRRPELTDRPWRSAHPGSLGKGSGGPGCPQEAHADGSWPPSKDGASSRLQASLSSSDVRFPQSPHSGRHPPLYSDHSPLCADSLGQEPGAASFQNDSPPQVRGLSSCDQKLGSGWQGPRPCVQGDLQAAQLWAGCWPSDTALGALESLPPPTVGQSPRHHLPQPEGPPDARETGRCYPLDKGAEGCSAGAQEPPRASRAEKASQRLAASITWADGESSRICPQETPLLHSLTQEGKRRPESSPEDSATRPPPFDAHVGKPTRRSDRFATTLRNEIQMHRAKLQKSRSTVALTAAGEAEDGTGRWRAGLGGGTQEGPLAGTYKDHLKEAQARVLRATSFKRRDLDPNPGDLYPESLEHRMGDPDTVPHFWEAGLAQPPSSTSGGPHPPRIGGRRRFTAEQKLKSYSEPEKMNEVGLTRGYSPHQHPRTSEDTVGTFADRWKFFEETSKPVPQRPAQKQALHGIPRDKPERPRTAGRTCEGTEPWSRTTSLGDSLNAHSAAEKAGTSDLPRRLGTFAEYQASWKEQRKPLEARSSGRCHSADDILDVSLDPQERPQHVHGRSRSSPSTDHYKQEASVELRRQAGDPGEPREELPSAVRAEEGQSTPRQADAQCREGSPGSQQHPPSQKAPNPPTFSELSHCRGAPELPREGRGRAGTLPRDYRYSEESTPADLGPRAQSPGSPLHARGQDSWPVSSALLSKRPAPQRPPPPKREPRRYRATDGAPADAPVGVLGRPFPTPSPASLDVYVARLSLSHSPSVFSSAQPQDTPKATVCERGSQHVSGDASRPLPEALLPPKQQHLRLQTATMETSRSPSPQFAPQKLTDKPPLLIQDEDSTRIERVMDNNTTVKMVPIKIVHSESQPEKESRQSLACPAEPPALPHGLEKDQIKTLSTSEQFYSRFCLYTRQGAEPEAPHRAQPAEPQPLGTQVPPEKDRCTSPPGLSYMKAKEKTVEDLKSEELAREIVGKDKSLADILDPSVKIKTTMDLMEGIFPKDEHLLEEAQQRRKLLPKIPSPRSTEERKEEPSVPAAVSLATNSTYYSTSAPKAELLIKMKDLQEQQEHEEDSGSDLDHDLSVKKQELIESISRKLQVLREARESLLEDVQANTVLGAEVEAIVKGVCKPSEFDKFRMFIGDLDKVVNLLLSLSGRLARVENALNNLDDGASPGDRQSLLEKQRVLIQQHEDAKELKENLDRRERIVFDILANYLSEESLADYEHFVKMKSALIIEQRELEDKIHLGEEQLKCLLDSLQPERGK
UniProt O14796: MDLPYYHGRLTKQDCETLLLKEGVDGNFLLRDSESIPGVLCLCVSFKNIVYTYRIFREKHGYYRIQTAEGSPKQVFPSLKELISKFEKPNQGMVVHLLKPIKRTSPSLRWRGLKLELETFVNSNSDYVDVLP
UniProt Q9NP50: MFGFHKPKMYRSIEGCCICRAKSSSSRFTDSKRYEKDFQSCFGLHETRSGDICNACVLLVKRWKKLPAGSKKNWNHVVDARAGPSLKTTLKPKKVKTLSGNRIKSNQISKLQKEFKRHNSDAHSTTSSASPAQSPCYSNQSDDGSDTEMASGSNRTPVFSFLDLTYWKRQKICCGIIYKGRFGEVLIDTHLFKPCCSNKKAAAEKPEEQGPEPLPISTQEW
UniProt Q15464: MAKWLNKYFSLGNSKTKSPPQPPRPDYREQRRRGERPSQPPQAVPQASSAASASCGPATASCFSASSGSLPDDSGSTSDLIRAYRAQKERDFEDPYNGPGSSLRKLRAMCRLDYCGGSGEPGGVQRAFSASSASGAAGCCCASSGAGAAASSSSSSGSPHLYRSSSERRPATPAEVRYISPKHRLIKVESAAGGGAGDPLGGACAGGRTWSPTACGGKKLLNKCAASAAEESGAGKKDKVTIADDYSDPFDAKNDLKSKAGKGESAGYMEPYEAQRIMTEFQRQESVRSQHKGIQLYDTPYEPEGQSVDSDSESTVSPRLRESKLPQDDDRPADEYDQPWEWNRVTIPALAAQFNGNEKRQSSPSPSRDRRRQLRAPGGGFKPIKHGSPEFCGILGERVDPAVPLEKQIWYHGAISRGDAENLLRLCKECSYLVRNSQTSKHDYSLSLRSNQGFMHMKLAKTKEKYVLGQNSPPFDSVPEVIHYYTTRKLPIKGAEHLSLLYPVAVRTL
UniProt Q6P4A7: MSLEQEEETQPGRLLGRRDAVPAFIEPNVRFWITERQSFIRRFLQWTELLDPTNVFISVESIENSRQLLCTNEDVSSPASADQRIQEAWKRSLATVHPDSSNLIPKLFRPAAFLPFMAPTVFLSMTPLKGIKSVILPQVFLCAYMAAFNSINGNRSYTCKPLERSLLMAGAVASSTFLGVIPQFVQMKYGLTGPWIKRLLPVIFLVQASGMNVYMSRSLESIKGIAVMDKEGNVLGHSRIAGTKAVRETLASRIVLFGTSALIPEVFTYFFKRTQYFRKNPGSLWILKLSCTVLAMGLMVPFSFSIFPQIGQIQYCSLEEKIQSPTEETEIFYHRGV
UniProt O95562: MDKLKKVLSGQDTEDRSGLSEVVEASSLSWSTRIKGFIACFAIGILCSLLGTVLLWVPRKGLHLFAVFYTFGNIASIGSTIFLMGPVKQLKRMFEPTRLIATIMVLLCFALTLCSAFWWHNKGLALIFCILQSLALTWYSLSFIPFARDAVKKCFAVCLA
UniProt Q02383: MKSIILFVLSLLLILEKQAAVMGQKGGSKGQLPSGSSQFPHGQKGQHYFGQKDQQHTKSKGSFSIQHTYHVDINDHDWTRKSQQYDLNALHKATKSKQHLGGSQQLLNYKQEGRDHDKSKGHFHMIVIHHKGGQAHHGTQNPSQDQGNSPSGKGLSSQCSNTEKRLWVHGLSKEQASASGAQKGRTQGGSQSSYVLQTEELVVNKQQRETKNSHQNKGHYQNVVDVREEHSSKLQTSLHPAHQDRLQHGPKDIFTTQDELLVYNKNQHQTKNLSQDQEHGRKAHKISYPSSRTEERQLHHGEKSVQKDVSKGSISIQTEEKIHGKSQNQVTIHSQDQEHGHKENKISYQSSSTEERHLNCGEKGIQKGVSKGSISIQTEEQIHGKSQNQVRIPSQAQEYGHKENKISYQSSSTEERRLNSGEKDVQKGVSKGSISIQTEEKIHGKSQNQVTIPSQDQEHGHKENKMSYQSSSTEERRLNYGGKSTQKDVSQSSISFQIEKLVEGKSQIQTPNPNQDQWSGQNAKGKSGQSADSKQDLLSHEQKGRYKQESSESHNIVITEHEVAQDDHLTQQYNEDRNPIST
UniProt Q8IW75: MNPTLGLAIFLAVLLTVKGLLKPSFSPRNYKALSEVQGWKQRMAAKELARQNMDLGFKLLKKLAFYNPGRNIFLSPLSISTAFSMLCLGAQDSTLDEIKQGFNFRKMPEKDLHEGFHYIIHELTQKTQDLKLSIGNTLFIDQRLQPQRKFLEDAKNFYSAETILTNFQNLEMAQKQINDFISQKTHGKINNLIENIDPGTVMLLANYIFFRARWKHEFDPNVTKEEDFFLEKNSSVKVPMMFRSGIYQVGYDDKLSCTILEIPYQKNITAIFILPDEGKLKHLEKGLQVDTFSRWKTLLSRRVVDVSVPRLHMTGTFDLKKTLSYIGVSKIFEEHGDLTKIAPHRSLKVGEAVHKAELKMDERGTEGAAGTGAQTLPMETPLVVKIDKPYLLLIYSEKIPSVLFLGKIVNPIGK
UniProt P05155: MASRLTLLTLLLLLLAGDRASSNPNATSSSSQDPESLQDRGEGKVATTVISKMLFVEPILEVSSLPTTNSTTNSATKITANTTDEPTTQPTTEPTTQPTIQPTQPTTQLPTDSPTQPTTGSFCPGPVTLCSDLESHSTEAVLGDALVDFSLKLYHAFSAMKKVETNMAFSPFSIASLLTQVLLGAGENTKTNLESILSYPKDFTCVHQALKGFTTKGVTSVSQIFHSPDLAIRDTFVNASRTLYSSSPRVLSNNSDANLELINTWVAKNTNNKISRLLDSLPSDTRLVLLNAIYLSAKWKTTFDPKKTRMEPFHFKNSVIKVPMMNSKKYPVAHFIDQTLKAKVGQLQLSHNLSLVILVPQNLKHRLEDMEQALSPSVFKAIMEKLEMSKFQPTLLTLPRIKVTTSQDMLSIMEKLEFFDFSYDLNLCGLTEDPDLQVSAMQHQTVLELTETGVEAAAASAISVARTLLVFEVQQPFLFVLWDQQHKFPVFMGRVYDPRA
UniProt Q2M3G4: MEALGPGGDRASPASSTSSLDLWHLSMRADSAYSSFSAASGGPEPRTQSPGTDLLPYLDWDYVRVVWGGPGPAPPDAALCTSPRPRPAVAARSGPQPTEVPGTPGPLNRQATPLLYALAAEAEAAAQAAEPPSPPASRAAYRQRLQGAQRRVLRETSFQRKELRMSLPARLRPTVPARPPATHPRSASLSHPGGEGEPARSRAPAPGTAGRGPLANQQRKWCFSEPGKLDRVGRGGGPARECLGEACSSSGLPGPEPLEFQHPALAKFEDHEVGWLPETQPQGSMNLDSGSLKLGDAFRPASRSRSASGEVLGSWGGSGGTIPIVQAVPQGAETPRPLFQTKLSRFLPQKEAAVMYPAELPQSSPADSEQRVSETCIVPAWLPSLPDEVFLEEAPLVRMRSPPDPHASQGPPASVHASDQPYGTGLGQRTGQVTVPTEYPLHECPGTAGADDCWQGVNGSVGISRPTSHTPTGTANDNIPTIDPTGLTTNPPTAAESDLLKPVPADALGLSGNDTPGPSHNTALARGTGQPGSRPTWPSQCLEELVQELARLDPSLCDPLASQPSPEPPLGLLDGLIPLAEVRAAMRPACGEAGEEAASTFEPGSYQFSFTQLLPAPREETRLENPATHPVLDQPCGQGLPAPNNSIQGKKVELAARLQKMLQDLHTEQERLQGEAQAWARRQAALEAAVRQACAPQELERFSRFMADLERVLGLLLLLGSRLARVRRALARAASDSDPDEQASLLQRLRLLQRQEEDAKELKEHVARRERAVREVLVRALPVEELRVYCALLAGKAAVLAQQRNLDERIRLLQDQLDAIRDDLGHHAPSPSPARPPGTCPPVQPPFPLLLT
UniProt Q16181: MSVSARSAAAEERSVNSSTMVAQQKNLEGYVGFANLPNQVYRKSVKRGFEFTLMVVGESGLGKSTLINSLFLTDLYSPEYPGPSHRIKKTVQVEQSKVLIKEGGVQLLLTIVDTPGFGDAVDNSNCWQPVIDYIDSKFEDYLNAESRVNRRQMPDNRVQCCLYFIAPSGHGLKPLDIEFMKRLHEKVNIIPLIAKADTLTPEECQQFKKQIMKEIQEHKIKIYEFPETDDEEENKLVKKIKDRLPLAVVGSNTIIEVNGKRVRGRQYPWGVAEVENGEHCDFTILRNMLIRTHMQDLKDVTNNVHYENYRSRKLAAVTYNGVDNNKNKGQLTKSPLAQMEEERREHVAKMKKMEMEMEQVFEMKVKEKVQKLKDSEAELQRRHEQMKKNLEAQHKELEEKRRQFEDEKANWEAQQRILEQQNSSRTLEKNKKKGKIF

[2] = compound: CC1=CC=C(C=C1)SC2=C3C=C(SC3=CN=C2)C(=O)N
Procedure, shortened: as §1

[3] = compound: CC1=NC(=CC=C1)C2=C(N=C(N2)C(C)(C)C)C3=CC4=NC=CN=C4C=C3
Procedure, shortened: as §1

Nexturastat A = compound: CCCCN(Cc1ccc(C(=O)NO)cc1)C(=O)Nc1ccccc1 [Nexturastat A]
Procedure, shortened: as §1

vemurafenib = compound: CCCS(=O)(=O)Nc1ccc(F)c(C(=O)c2c[nH]c3ncc(-c4ccc(Cl)cc4)cc23)c1F [vemurafenib]
Procedure, shortened: as §1

[4] = compound: CCCS(=O)(=O)Nc1ccc(F)c(C(=O)c2c[nH]c3ncc(Cl)cc23)c1F
Procedure, shortened: as §1

[5] = compound: CCCc1cc(C)[nH]c(=O)c1CNC(=O)c1cc(-c2ccnc(N3CCN(C)CC3)c2)cc2c1cnn2C(C)C
Procedure, shortened: as §1

givinostat = compound: CCN(CC)Cc1ccc2cc(COC(=O)Nc3ccc(C(=O)NO)cc3)ccc2c1 [givinostat]
Procedure, shortened: as §1

barasertib = compound: CCN(CCCOc1ccc2c(Nc3cc(CC(=O)Nc4cccc(F)c4)[nH]n3)ncnc2c1)CCOP(=O)(O)O [barasertib]
Procedure, shortened: as §1

[6] = compound: CC[C@@H]1C(=O)N(C)c2cnc(Nc3ccc(C(=O)NC4CCN(C)CC4)cc3OC)nc2N1C1CCCC1
Procedure, shortened: as §1

volasertib = compound: CC[C@@H]1C(=O)N(C)c2cnc(Nc3ccc(C(=O)N[C@H]4CC[C@H](N5CCN(CC6CC6)CC5)CC4)cc3OC)nc2N1C(C)C [volasertib]
Procedure, shortened: as §1

[7] = compound: CC[C@H](C)N1C=C(C2=C(C=C(C=C21)C3=CN=C(C=C3)N4CCNCC4)C(=O)NCC5=C(C=C(NC5=O)C)C)C
Procedure, shortened: as §1

epoxomicin = compound: CC[C@H](C)[C@@H](C(=O)N[C@@H]([C@@H](C)O)C(=O)N[C@@H](CC(C)C)C(=O)[C@]1(CO1)C)NC(=O)[C@H]([C@@H](C)CC)N(C)C(=O)C [epoxomicin]
Procedure, shortened: as §1

[8] = compound: CCn1cc(-c2ccnc3[nH]c(-c4cccc(CN(C)C)c4)cc23)c(-c2ccc(NC(=O)N(C)C)cc2)n1
Procedure, shortened: as §1

[9] = compound: CN(C)CC(=O)Nc1ccc2[nH]c(=O)c3ccccc3c2c1
Procedure, shortened: as §1

[10] = compound: CN1C2=C(C3=C1C(=O)N(N=C3)CC4=CC(=CC=C4)N)SC(=C2)S(=O)C
Procedure, shortened: as §1

[11] = compound: CN1CCC(CNc2ccc3ncc(-c4cccc(OC(F)(F)F)c4)n3n2)CC1
Procedure, shortened: as §1

[12] = compound: CC1=C(C=C(C=C1)NC(=O)C2=CC(=CC=C2)N(C)C)NC(=O)C3=CC=C(C=C3)O
Procedure, shortened: as §1

rosiglitazone = compound: CN(CCOC1=CC=C(C=C1)C[C@H]2C(=O)NC(=O)S2)C3=CC=CC=N3 (racemic) [rosiglitazone]
Procedure, shortened: as §1

[13] = compound: CCn1c(C(=O)N(C2CC2)C2CC2)cc2c3c(ncn3C)c(Nc3cc(C)n(C)n3)nc21
Procedure, shortened: as §1

Measured: log2 fold change

SHROOM2 (UniProt Q13796)
active: Nexturastat A 0.763
inactive: [1] -0.104 | [2] 0.011 | [3] -0.206 | vemurafenib -0.078 | [4] -0.179 | [5] -0.207 | givinostat 0.238 | barasertib 0.071 | [6] 0.027 | volasertib 0.068 | [7] -0.243 | epoxomicin -0.136 | [8] -0.072 | [9] -0.021 | [10] -0.103 | [11] -0.094

SH2D1B (UniProt O14796)
inactive: [1] -0.781 | [12] 0.013 | [2] -0.01 | [3] -0.011 | Nexturastat A 0.143 | vemurafenib 0.048 | [4] -0.135 | [5] -0.146 | givinostat -0.028 | [6] -0.068 | volasertib -0.029 | [7] 0.095 | epoxomicin 0.168 | [8] -0.068 | [9] -0.025 | [10] 0.235 | [11] -0.174

SF1 (UniProt H7BZT1)
inactive: [12] -0.188

SHANK2 isoform 3 (UniProt Q9UPX8)
inactive: [1] 0.256 | [3] 0.018 | Nexturastat A 0.441 | [7] -0.053 | epoxomicin -0.234

SINHCAF (UniProt Q9NP50)
inactive: [1] -0.483 | [3] -0.296 | Nexturastat A -0.615 | epoxomicin 0.484

SHB (UniProt Q15464)
inactive: [1] -0.058 | [2] 0.104 | [4] -0.053 | [5] 0.096 | barasertib 0.029 | volasertib 0.174 | [8] -0.202 | rosiglitazone -0.057 | [10] -0.002 | [11] 0.108

SFXN4 isoform 3 (UniProt Q6P4A7)
inactive: [1] 0.244 | [2] 0.079 | vemurafenib 0.17 | [4] 0.179 | givinostat 0.048 | barasertib -0.037 | [6] 0.15 | volasertib -0.317 | [13] -0.211 | [8] -0.039 | [9] -0.031 | rosiglitazone 0.035 | [10] 0.115 | [11] 0.067

SFT2D2 (UniProt O95562)
inactive: [1] -0.073 | [12] -0.063 | [2] 0.007 | Nexturastat A -0.161 | vemurafenib -0.1 | [4] 0.083 | [5] -0.065 | givinostat -0.058 | barasertib 0.002 | [6] -0.09 | volasertib 0.086 | [7] -0.127 | epoxomicin -0.017 | [13] 0.004 | [8] -0.013 | [9] 0.002 | rosiglitazone -0.043 | [10] -0.089 | [11] 0.113

SEMG2 (UniProt Q02383)
inactive: [1] -0.038 | Nexturastat A -0.062 | [5] -0.097 | barasertib 0.015 | [6] 0.043 | [7] 0.15 | epoxomicin 0.06 | [8] 0.035 | [11] 0.058

SERPINA12 (UniProt Q8IW75)
inactive: [1] -0.077 | Nexturastat A 0.207 | vemurafenib 0.338 | [5] -0.125 | [6] 0.415 | [7] 0.002 | epoxomicin 1.02 | [9] 0.936 | [10] 0.338

Two consecutive records from above, for reference:
SFT2D2 (UniProt O95562)
inactive: [1] -0.073 | [12] -0.063 | [2] 0.007 | Nexturastat A -0.161 | vemurafenib -0.1 | [4] 0.083 | [5] -0.065 | givinostat -0.058 | barasertib 0.002 | [6] -0.09 | volasertib 0.086 | [7] -0.127 | epoxomicin -0.017 | [13] 0.004 | [8] -0.013 | [9] 0.002 | rosiglitazone -0.043 | [10] -0.089 | [11] 0.113

SEMG2 (UniProt Q02383)
inactive: [1] -0.038 | Nexturastat A -0.062 | [5] -0.097 | barasertib 0.015 | [6] 0.043 | [7] 0.15 | epoxomicin 0.06 | [8] 0.035 | [11] 0.058

The listing continues:

SF1 (UniProt H7C0N4)
inactive: [12] -0.05 | [2] -0.059 | [3] 0.103 | vemurafenib 0.016 | [4] 0.052 | [5] -0.017 | barasertib -0.064 | [6] 0.087 | volasertib 0.249 | [7] 0.065 | [9] -0.03 | rosiglitazone -0.048 | [10] -0.071

SEPTIN5 (UniProt G3XAH0)
inactive: [1] -0.002 | [12] -0.046 | [2] 0.04 | vemurafenib 0.058 | [4] 0.023 | [5] -0.009 | givinostat 0.014 | barasertib 0.002 | volasertib 0.097 | [7] 0.074 | epoxomicin 0.049 | [8] 0.211 | [9] 0.011 | [10] -0.079 | [11] 0.075
active: Nexturastat A -0.255

SERPING1 isoform 3 (UniProt P05155)
inactive: givinostat 0.008 | [6] 0.03 | [13] -0.248 | [10] 0.331

SECISBP2L (UniProt Q93073)
inactive: vemurafenib 0.182 | [9] -0.018

SHROOM1 (UniProt Q2M3G4)
inactive: [12] 0.194 | [2] 0.065 | Nexturastat A 0.325 | [4] -0.146 | givinostat 0.184 | barasertib -0.051 | volasertib -0.199 | epoxomicin 0.13 | [13] -0.113 | rosiglitazone -0.498

SEPTIN7 isoform 2 (UniProt Q16181)
inactive: [5] -0.067 | givinostat 0.035 | [13] -0.037

From the supplement of paper PMC10849652
